Results from one PubChem assay

Source: PubChem BioAssay AID504749 (NCATS, 2011).

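A panel of P. falciparum strains inside erythrocytes is exposed to compounds for three days, then a DNA-binding dye reports the amount of parasite DNA. Each compound was titrated across a series from about 0.000037 to 29 µM. The number is the fitted AC50, the concentration giving a half-maximal change in signal; a lower value means higher potency, whether the curve shows a decrease or an increase. Calls follow the curve class and fit quality: every row here is inconclusive, covering signal-raising curves and weak, poorly fitted, partial or highest-dose-only inhibition curves.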

Values are in nM. All entries here are filed as inconclusive. These entries are mostly ones the record files as inconclusive; other results of the assay are not listed here. A potency from a partial, single-point or poor curve is only a rough figure.

compound,condition,Potency (nM),remark
CO[C@]12C(COC(N)=O)C3=C(C(=O)C(C)=C(N)C3=O)N1CC1NC12 (some centres unmarked),CP329,19011,"inhibitor, single point"
CO[C@]12C(COC(N)=O)C3=C(C(=O)C(C)=C(N)C3=O)N1CC1NC12 (some centres unmarked),CP194,19011,"inhibitor, single point"
CO[C@]12C(COC(N)=O)C3=C(C(=O)C(C)=C(N)C3=O)N1CC1NC12 (some centres unmarked),CP335,19011,"inhibitor, single point"
CO[C@]12C(COC(N)=O)C3=C(C(=O)C(C)=C(N)C3=O)N1CC1NC12 (some centres unmarked),DIV17,19011,"inhibitor, single point"
CO[C@]12C(COC(N)=O)C3=C(C(=O)C(C)=C(N)C3=O)N1CC1NC12 (some centres unmarked),GB4,19011,"inhibitor, partial curve, poor fit"
CO[C@]12C(COC(N)=O)C3=C(C(=O)C(C)=C(N)C3=O)N1CC1NC12 (some centres unmarked),CP266,19011,"inhibitor, single point"
CO[C@]12C(COC(N)=O)C3=C(C(=O)C(C)=C(N)C3=O)N1CC1NC12 (some centres unmarked),PC26,19011,"inhibitor, single point"
CO[C@]12C(COC(N)=O)C3=C(C(=O)C(C)=C(N)C3=O)N1CC1NC12 (some centres unmarked),CP215,15101,"inhibitor, single point"
CO[C@]12C(COC(N)=O)C3=C(C(=O)C(C)=C(N)C3=O)N1CC1NC12 (some centres unmarked),CP297,19011,"inhibitor, single point"
CO[C@]12C(COC(N)=O)C3=C(C(=O)C(C)=C(N)C3=O)N1CC1NC12 (some centres unmarked),CP203,13459,"inhibitor, single point"
CO[C@]12C(COC(N)=O)C3=C(C(=O)C(C)=C(N)C3=O)N1CC1NC12 (some centres unmarked),W2,19011,"inhibitor, single point"
CO[C@]12C(COC(N)=O)C3=C(C(=O)C(C)=C(N)C3=O)N1CC1NC12 (some centres unmarked),CP325,19011,"inhibitor, single point"
CO[C@]12C(COC(N)=O)C3=C(C(=O)C(C)=C(N)C3=O)N1CC1NC12 (some centres unmarked),CP268,1069,"inhibitor, partial curve, poor fit"
CO[C@]12C(COC(N)=O)C3=C(C(=O)C(C)=C(N)C3=O)N1CC1NC12 (some centres unmarked),CP260,14125,"inhibitor, single point"
CO[C@]12C(COC(N)=O)C3=C(C(=O)C(C)=C(N)C3=O)N1CC1NC12 (some centres unmarked),CP315,19011,"inhibitor, single point"
CO[C@]12C(COC(N)=O)C3=C(C(=O)C(C)=C(N)C3=O)N1CC1NC12 (some centres unmarked),CP291,19011,"inhibitor, single point"
CO[C@]12C(COC(N)=O)C3=C(C(=O)C(C)=C(N)C3=O)N1CC1NC12 (some centres unmarked),DIV30,19011,"inhibitor, single point"
CO[C@]12C(COC(N)=O)C3=C(C(=O)C(C)=C(N)C3=O)N1CC1NC12 (some centres unmarked),CP269,16944,"inhibitor, single point"
N#Cc1nn(-c2c(Cl)cc(C(F)(F)F)cc2Cl)c(N)c1S(=O)C(F)(F)F (centres unmarked),Dd2,15848,"inhibitor, single point"
N#Cc1nn(-c2c(Cl)cc(C(F)(F)F)cc2Cl)c(N)c1S(=O)C(F)(F)F (centres unmarked),ATS189,17782,"inhibitor, single point"
N#Cc1nn(-c2c(Cl)cc(C(F)(F)F)cc2Cl)c(N)c1S(=O)C(F)(F)F (centres unmarked),PAD,10000,"inhibitor, single point"
N#Cc1nn(-c2c(Cl)cc(C(F)(F)F)cc2Cl)c(N)c1S(=O)C(F)(F)F (centres unmarked),P94_40,10000,"inhibitor, single point"
N#Cc1nn(-c2c(Cl)cc(C(F)(F)F)cc2Cl)c(N)c1S(=O)C(F)(F)F (centres unmarked),AS120,11220,"inhibitor, single point"
N#Cc1nn(-c2c(Cl)cc(C(F)(F)F)cc2Cl)c(N)c1S(=O)C(F)(F)F (centres unmarked),HB3,10000,"inhibitor, single point"
N#Cc1nn(-c2c(Cl)cc(C(F)(F)F)cc2Cl)c(N)c1S(=O)C(F)(F)F (centres unmarked),CP247,10000,"inhibitor, single point"
N#Cc1nn(-c2c(Cl)cc(C(F)(F)F)cc2Cl)c(N)c1S(=O)C(F)(F)F (centres unmarked),CP192,19011,"inhibitor, single point"
N#Cc1nn(-c2c(Cl)cc(C(F)(F)F)cc2Cl)c(N)c1S(=O)C(F)(F)F (centres unmarked),DFO2036,17782,"inhibitor, single point"
N#Cc1nn(-c2c(Cl)cc(C(F)(F)F)cc2Cl)c(N)c1S(=O)C(F)(F)F (centres unmarked),CP211,15101,"inhibitor, single point"
N#Cc1nn(-c2c(Cl)cc(C(F)(F)F)cc2Cl)c(N)c1S(=O)C(F)(F)F (centres unmarked),CP215,15101,"inhibitor, single point"
N#Cc1nn(-c2c(Cl)cc(C(F)(F)F)cc2Cl)c(N)c1S(=O)C(F)(F)F (centres unmarked),ECU,14125,"inhibitor, single point"
N#Cc1nn(-c2c(Cl)cc(C(F)(F)F)cc2Cl)c(N)c1S(=O)C(F)(F)F (centres unmarked),P93_24,10000,"inhibitor, single point"
N#Cc1nn(-c2c(Cl)cc(C(F)(F)F)cc2Cl)c(N)c1S(=O)C(F)(F)F (centres unmarked),CP265,17782,"inhibitor, single point"

The last 4 entries again:

* N#Cc1nn(-c2c(Cl)cc(C(F)(F)F)cc2Cl)c(N)c1S(=O)C(F)(F)F (centres unmarked) [CP215] | Potency 15101 nM (inhibitor, single point)
* N#Cc1nn(-c2c(Cl)cc(C(F)(F)F)cc2Cl)c(N)c1S(=O)C(F)(F)F (centres unmarked) [ECU] | Potency 14125 nM (inhibitor, single point)
* N#Cc1nn(-c2c(Cl)cc(C(F)(F)F)cc2Cl)c(N)c1S(=O)C(F)(F)F (centres unmarked) [P93_24] | Potency 10000 nM (inhibitor, single point)
* N#Cc1nn(-c2c(Cl)cc(C(F)(F)F)cc2Cl)c(N)c1S(=O)C(F)(F)F (centres unmarked) [CP265] | Potency 17782 nM (inhibitor, single point)